# Assays:
# [1] = Rewetting rate of sanitary napkin with top sheet coated with blood modifying agent (Example 1); settings: horse EDTA blood 3 g dropped twice; agent coated at about 5 g/m^2; filter paper 30 g/cm^2, 1 minute
# [2] = Absorbent body migration rate (Example 1); settings: time after the second dropping of horse EDTA blood; agent coated at about 5 g/m^2
smiles,measurement,setting,value
CCCCCCCCOC(=O)CCCCC(=O)OCCCCCCCC [2-17],Rewetting rate (%),[1],1.7%
CCCCCCCCCCCCCC(=O)OCCCCCCCCCCCC [2-19],Rewetting rate (%),[1],1.8%
same,Absorber migration rate,[2],4 s
CCCCCCCCCCCCOC(=O)CCCCCCCCCCC [2-18],Rewetting rate (%),[1],1.8%

# Source: patent US9498387B2, “Absorbent article having bent sections” (UNICHARM CORPORATION, priority 2012, dated 2016)
